Screening data, single-dose tests

Protein sequences, listed by entry. Tags and fused reporters are not part of them. Residues count along the entry.
UniProt P9WPC5, whole entry: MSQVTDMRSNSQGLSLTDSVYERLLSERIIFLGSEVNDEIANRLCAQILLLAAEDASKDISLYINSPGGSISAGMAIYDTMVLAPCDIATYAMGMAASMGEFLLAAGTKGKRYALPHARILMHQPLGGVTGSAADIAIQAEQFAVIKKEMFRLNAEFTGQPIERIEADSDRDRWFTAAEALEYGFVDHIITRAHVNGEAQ
UniProt P9WPC3, whole entry partner: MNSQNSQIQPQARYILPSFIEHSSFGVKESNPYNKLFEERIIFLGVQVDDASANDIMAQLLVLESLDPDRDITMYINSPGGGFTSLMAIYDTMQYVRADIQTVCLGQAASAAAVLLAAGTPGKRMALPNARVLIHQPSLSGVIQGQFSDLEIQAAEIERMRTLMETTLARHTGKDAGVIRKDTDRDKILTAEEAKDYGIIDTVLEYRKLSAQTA
UniProt Q4DA54, 1-478: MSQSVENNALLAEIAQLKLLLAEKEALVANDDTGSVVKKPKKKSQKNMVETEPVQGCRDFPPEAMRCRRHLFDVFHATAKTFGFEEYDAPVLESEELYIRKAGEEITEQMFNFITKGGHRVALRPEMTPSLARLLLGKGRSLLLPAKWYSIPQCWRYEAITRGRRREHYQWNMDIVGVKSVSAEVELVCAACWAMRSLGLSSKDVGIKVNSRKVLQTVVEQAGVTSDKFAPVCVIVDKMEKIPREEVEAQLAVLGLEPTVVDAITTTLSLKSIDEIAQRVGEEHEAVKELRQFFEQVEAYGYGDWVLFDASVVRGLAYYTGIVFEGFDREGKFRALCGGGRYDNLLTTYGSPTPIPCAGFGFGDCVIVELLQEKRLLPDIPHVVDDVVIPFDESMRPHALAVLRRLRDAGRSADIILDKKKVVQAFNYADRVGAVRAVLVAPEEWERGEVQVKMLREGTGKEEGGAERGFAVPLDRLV
UniProt Q8IDJ8, 1-583: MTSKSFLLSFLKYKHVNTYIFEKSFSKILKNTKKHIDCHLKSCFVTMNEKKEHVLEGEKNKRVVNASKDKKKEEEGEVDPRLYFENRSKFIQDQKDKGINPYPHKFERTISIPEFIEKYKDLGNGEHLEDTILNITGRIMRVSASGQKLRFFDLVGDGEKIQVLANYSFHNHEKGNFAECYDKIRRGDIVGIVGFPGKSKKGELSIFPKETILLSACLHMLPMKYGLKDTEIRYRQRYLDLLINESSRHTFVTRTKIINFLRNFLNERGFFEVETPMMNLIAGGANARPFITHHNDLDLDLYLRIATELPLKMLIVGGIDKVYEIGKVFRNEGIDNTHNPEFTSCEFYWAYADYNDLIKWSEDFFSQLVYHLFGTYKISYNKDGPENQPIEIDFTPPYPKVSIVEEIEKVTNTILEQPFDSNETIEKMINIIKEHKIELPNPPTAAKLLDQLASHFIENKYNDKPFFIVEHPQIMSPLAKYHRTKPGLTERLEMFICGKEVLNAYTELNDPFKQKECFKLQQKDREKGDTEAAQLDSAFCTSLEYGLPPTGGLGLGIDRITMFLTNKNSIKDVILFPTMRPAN
UniProt P9WNZ1, whole entry: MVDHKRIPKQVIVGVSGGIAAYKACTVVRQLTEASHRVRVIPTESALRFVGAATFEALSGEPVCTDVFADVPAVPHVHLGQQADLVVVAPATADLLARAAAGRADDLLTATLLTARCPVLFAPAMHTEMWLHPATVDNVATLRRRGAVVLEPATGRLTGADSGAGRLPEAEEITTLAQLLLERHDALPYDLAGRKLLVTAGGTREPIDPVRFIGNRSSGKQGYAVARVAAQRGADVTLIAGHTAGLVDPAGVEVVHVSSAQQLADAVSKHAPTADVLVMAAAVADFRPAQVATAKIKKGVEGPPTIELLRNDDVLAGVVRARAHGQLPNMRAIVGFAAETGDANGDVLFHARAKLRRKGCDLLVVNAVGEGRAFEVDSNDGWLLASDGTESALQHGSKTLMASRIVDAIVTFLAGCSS
UniProt I6X8D2, whole entry: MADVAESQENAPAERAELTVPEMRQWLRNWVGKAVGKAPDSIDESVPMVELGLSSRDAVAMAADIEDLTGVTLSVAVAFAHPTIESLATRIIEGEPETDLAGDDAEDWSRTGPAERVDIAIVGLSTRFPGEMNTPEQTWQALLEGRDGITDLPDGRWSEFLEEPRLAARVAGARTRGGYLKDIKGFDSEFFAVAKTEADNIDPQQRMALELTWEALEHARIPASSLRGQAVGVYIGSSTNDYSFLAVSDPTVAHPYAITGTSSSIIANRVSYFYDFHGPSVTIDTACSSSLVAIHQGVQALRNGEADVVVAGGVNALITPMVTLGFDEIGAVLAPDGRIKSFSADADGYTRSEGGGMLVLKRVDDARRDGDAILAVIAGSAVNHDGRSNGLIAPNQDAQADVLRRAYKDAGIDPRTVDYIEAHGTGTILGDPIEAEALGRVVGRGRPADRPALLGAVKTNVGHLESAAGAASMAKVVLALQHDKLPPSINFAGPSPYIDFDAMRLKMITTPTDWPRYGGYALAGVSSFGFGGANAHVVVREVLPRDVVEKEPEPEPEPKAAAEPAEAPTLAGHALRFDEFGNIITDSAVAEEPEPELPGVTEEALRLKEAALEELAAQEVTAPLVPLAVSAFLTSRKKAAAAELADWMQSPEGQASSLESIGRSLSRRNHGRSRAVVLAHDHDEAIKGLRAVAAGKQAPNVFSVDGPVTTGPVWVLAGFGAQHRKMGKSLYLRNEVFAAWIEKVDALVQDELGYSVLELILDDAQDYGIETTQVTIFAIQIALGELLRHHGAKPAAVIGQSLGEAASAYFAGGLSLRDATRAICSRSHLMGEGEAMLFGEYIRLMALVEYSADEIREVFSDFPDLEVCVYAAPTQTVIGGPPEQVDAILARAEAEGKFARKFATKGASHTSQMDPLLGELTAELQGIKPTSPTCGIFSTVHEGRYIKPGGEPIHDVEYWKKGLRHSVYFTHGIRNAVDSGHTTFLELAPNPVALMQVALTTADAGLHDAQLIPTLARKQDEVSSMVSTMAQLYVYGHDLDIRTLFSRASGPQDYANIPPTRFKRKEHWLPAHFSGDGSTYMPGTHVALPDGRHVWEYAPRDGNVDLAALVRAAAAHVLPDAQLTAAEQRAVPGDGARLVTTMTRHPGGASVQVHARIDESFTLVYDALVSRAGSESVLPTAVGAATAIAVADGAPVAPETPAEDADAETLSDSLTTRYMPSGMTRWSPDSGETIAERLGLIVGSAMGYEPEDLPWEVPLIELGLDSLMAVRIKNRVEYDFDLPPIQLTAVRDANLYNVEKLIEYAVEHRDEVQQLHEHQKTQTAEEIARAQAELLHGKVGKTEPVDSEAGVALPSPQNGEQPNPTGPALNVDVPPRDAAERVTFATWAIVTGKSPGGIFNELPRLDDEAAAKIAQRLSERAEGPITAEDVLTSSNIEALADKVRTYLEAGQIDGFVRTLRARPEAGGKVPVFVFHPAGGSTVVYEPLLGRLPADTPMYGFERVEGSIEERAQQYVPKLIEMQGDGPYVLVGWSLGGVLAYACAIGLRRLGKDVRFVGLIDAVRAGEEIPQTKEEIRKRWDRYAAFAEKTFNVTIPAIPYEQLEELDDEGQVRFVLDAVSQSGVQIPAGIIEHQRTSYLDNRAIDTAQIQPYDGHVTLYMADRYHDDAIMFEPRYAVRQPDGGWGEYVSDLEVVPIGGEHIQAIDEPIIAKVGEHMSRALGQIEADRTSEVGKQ

Measurements from “University of Dundee, Small-Polar-MMV Screening Library” (2021), ChEMBL document CHEMBL3988442.

ClpP1P2: 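Protease assay of ClpP1P2, read by the AMC dye that it sets free. Target: ClpP1P2, Mycobacterium tuberculosis (UniProt P9WPC5 and UniProt P9WPC3). Concentration: 50 µM. Higher reads as stronger inhibition, judged from the few compounds that gave an IC50. Most other retested compounds had strongly negative values. About 69,000 compounds were tested under these conditions; 0.015% (about 10) showed 50% or more at least once.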
TcHisRS: 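Enzyme assay of histidyl-tRNA synthetase; the read-out is not stated. Target: Histidine-tRNA ligase, Trypanosoma cruzi CL Brener (UniProt Q4DA54). Tested at 30 µM. The record gives no direction; compounds that gave an IC50 in retests scored well above the rest, so higher reads as stronger inhibition. Of about 69,000 compounds tested this way, about 31 (0.045%) reached 50% or more in at least one test.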
PfKRS1: 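Enzyme assay of the cytosolic lysyl-tRNA synthetase in 384-well plates, read by luminescence. Target: Lysine-tRNA ligase, Plasmodium falciparum 3D7 (UniProt Q8IDJ8). Compounds at 30 µM. Direction is inferred from only a few compounds that gave an IC50; most scored high, so higher reads as stronger inhibition. Of about 69,000 compounds tested this way, about 49 (0.071%) reached 50% or more in at least one test.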
CoaBC: 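Enzyme assay of CoaBC with a phosphate dye (Biomol Green) read at 650 nm. Target: Coenzyme A biosynthesis protein CoaBC, Mycobacterium tuberculosis (UniProt P9WNZ1). Compounds at 30 µM. Direction is inferred from only a few compounds that gave an IC50; most scored high, so higher reads as stronger inhibition. Most strong results did not repeat in a second test. About 67,000 compounds were tested under these conditions; 0.06% (about 40) showed 50% or more at least once.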
Leishmania in macrophages: 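Cell assay of Leishmania donovani living inside macrophages; the read-out is not stated. Tested at 30 µM. Direction is inferred from retests: higher values go with stronger inhibition. Size under these conditions: about 69,000 compounds, about 1,000 of them at 50% or above in at least one test.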
Pks13 thioesterase: 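Enzyme assay of the thioesterase domain of polyketide synthase 13; the read-out is not stated. Target: Polyketide synthase Pks13, Mycobacterium tuberculosis (UniProt I6X8D2). Concentration: 30 µM. Higher reads as stronger inhibition (inferred from which compounds were picked for retests). Size under these conditions: about 67,000 compounds, about 300 of them at 50% or above in at least one test.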

Results are given as percent effect. The record does not define 0% and 100%; most values in the screen are far below 50% and negative numbers occur (in some assays of this library far below -100). Compounds were drawn at random from those tested, without regard to their results. Two or more numbers in one place are separate tests of the same structure; such repeats can differ widely. A dash means the value is not listed here; it may have been measured.

| Compound | ClpP1P2 | TcHisRS | PfKRS1 | CoaBC | Leishmania in macrophages | Pks13 thioesterase |
|---|---|---|---|---|---|---|
| `Cc1nc(CN(C)C2CCN(Cc3nc4c(F)cccc4[nH]3)C2)no1` (stereo not given) | 11.22 | 12.87 | 1.86 | 3.155 | -9.5 | -5.838 |
| `O=C(O)C(F)(F)F.OCCN1CCC(F)(F)C2(CCN(c3cnccn3)C2)C1` (stereo not given) | - | - | - | - | 34.93 | - |
| `[H][C@@]12CCN(Cc3ccc4c(c3)OCO4)C[C@@]1([H])O[C@@H](c1noc(C)n1)C2` | - | - | - | - | -22.61 | - |
| `CC[C@@H](CO)NC(=O)c1cc(COc2ccc(OC)cc2Cl)[nH]n1` | 2.303 | 8.333 | 9.103 | -4.054 | 22.49 | 18.28 |
| `OC(CN1CCN(c2ncccn2)CC1)c1cccc(F)c1` (stereo not given) | -0.1346 | -0.8475 | 4.546 | 6.167 | 21.55 | -8.896 |
| `CCNc1ncc(C)c(-c2cnn(C)c2)n1` | -17.93 | -0.4975 | 0 | -1.235 | 6.757 | -2.347 |
| `Cc1ccc(F)cc1C(=O)N1C[C@@H](CN2CCOCC2)[C@@H](CO)C1` | -9.033 | -1.653 | 2.544 | -0.8772 | 13.52 | -5.271 |
| `O=C(O)C(F)(F)F.[H][C@@]12C[C@H](C(=O)N(C)C)CN(Cc3ccc4c(c3)OCO4)[C@]1([H])CCO2` | - | - | - | - | 26.76 | - |
| `CCC(=O)N1CCC2(CC1)COc1ccccc1S(=O)(=O)N(C)C2` | 10.98 | 0.8475 | 4.012 | 3.965 | 21.11 | -15.57 |
| `Cc1cnn(CC(C)NCc2ccc(OCC(N)=O)cc2)c1` (stereo not given) | 7.324 | 0.5634 | 0.962 | 2.163 | 8.68 | -28.18 |
| `O=C(O)C(F)(F)F.[H][C@@]12COC[C@]1([H])[C@@H](OC)CN2Cc1ccc(CC)o1` | - | - | - | - | 15.52 | - |
| `[H][C@@]12CN(S(C)(=O)=O)C[C@]1(C(=O)NC)CCC21CCN(S(C)(=O)=O)CC1` | - | - | - | - | -24.09 | - |
| `[H][C@@]12CN(Cc3cccnc3)C[C@]1([H])CN(C(=O)c1cccn1C)C2` | - | - | - | - | 5.65 | - |
| `CN1N=C(C(=O)N2CCCN(c3ncccc3C#N)CC2)CCC1=O` | 0.1007 | 2.703 | 1.386 | 7.273 | 15.72 | 15.74 |
| `CNC(=O)CC1CC2(CCN(Cc3nccs3)CC2)c2ccccc21.O=C(O)C(F)(F)F` (stereo not given) | - | - | - | - | 18.55 | - |
| `CN(Cc1cc(Cl)cc2cccnc12)CC1CCN(CCO)CC1` | -9.107 | -1.604 | 2.792 | -6.087 | 15.82 | -15.58 |
| `CCc1ccc(C2COCCN2C(=O)Nc2cc(C)on2)o1` (stereo not given) | 2.828 | 7.792 | 5.27 | -1.707 | 24.53 | -31.72 |
| `CC(=O)N1N=C(COc2ccc3c(c2)OCO3)OC1c1cccc(Cl)c1` (stereo not given) | -13.38 | 6.098 | 0.6204 | 2.532 | 1.74 & 10.57 | -6.961 |
| `CC(C)n1ccnc1C1CCCN(c2ccnc3ccccc23)C1` (stereo not given) | -9.626 | 7.054 | -3.181 | -5.804 | 36.9 | -3.467 |
| `COCCNC(=O)c1nnn(Cc2ccccc2)c1OC` | -9.089 | 0 | 0.6755 | -0.4619 | -41.43 | -14.33 |
| `CC(CCN1CCCC1=O)NCc1cnc(C2CCC2)s1` (stereo not given) | -2.249 | 5.102 | 2.023 | 1.091 | -5.644 | -4.002 |
| `Cn1ccnc1CNc1c(F)cccc1-n1cccn1` | 11.4 | 5.291 | 2.753 | 7.298 | 11.67 | -18.08 |
| `O=C(O)c1cccnc1CN(Cc1ccsc1)C1CC1` | -3.852 | 7.303 | 6.177 | 3.823 | 27.9 | -13.75 |
| `CNC(=O)[C@H]1C[C@@H]2CCN(Cc3ccncc3)C[C@H]2O1` | -15.6 | 0.9524 | -5.449 | -2.589 | - | -21.25 |
| `O=C(c1ccco1)N1CCc2onc(CN3CCCC3)c2C1` | 9.13 | 4.813 | -0.4826 | 0.8333 | -4.882 | 40.4 |
| `CCn1nc(C)c2nc(C(C)C)nc(NCC(C)O)c21` (stereo not given) | -4.82 | 4.348 | 6.972 | -5.081 | -11.11 | -13.39 |
| `Cn1cc(CN2CC(C(=O)Nc3ccccc3)C3(CCOCC3)C2)cn1.O=C(O)C(F)(F)F` (stereo not given) | - | - | - | - | 2.858 | - |
| `CN1CCCC2(CCN(Cc3cncn3C3CCCCC3)C2)C1=O` (stereo not given) | -26.74 | 5.797 | 4.376 | 4.596 | 1.279 | -27.22 |
| `O=C(C1CC=CC1)N1CCC2(CCC(=O)N2Cc2cccc(F)c2)CC1` | -11.32 | 8.458 | 5.706 | -3.226 | 15.71 | -30.13 |
| `CN(c1ccncn1)C1CC2(CCN(C(=O)c3cncs3)C2)C1` (stereo not given) | -7.789 | -3.297 | 1.392 | -2.184 | 1.932 & -11.42 | 3.849 |
| `Cc1csc(CN2CCC[C@]3(C[C@@H](OCC4CC4)CO3)C2)n1` | 10.36 | 9.045 | 1.962 | 6.947 | - | 46.21 |
| `Cn1cnnc1C1CCN(C(=O)c2cc3c(s2)CCCC3)CC1` | -14.42 | 0.5848 | 0.6063 | 8.929 | 2.615 | -21.23 |
| `Cc1ccccc1-c1cncc(C2CCN(Cc3cnn(C)c3)CC2)n1` | 6.078 | 14.89 | 0.3568 | 8.088 | 5.22 | -18.69 |
| `O=C(NCCOCC1CC1)Nc1ccc(F)cc1` | 0.4976 | 6.897 | 2.355 | 7.269 | 1.753 | -3.45 |
| `COc1ccc(F)cc1NC(=O)NCC1(CN2CCOCC2)CC1` | -9.785 | 1.622 | -0.4961 | 10.68 | 30.96 | -32.35 |
| `CCc1ccc(C(=O)N2C[C@@H]3COC[C@@H](C(=O)NC)[C@@H]3C2)cc1` | -2.702 | 4.301 | 2.56 | -6.554 | - | -38.82 |
| `COc1ccc(C(=O)C2CCCN(CCCn3cccn3)C2)c(OC)c1` (stereo not given) | -14.49 | -0.8264 | 2.544 | -0.8772 | 7.012 | -11.14 |
| `O=C(c1cscn1)N1CCC2(CN(Cc3nccs3)C2)C1` | 1.875 | 0 | 0.4936 | 4.574 | - | 4.002 |
| `CCO[C@H]1CN(CC2CCOCC2)[C@@H]2CCCO[C@H]12` | 5.592 | 0.5025 | -1.425 | 2.351 | - | -19.62 |
| `CCCc1nnc(NC(=O)NC2CCOc3ccccc32)s1` (stereo not given) | -0.4552 | 2.041 | 4.227 | -0.8485 | 15.82 | -7.87 |
| `CNC(=O)C1CCN(C(=O)c2ccn(-c3ccc(F)cc3)n2)CC1` | 9.805 | 1.916 | 0.07474 | 6.408 | 7.806 | -11.88 |
| `COCC(NC(=O)NCc1sc(C)nc1C)c1ccco1` (stereo not given) | -5.796 | 2.674 | -4.262 | 10.43 | 14.26 | 0.2599 |
| `Cc1ccc(NC(=O)N(C)C)c(C(=O)OCC(=O)NC(C)C(C)C)c1` (stereo not given) | -12.73 | 12.05 | 0.509 | 7.426 | -27.19 | -27.51 |
| `CN(C)c1ncc2c(n1)C1(CCN(Cc3ccccc3F)C1)COC2` (stereo not given) | -3.797 | -0.4975 | 6.96 | 4.519 | - | -31.25 |
| `CC(C(=O)N1CCCN(c2ncccc2C#N)CC1)n1cccn1` (stereo not given) | -13.6 | 3.788 | -5.601 | 5.843 | 4.461 | 13.67 |

For reference, 3 entries once more:

For CNC(=O)[C@H]1C[C@@H]2CCN(Cc3ccncc3)C[C@H]2O1 the result was ClpP1P2: -15.6%; TcHisRS: 0.9524%; PfKRS1: -5.449%; CoaBC: -2.589%; Pks13 thioesterase: -21.25%.
For Cc1ccc(F)cc1C(=O)N1C[C@@H](CN2CCOCC2)[C@@H](CO)C1 the result was ClpP1P2: -9.033%; TcHisRS: -1.653%; PfKRS1: 2.544%; CoaBC: -0.8772%; Leishmania in macrophages: 13.52%; Pks13 thioesterase: -5.271%.
For CCc1ccc(C2COCCN2C(=O)Nc2cc(C)on2)o1 (stereo not given) the result was ClpP1P2: 2.828%; TcHisRS: 7.792%; PfKRS1: 5.27%; CoaBC: -1.707%; Leishmania in macrophages: 24.53%; Pks13 thioesterase: -31.72%.